Several values for one entry are separate records, joined by “and”; a condition that tells them apart may be missing. Equal values may be shown once.
Test: Kidney function markers (plasma BUN and creatinine) on Day 10 in control and hyperuricemic rats
Assay type: in vivo, rat

With `CN1CC(=O)NC1=N` [Creatinine, creatinine] the “Plasma Creatinine” value (control rats, Day 10, individual rat) was 13.0 µM and 12.5 µM and 12.8 µM, the “Plasma Creatinine” value (control rats, Day 10, mean) was 12.8 µM and the “Plasma Creatinine” value (hyperuricemic rats, Day 10, individual rat) was 49.9 µM and 42.8 µM and 29.5 µM and 18.0 µM and 31.8 µM and 29.9 µM and 32.9 µM. The “Plasma Creatinine” value (hyperuricemic rats, Day 10, mean) was 33.6 µM.

From article PMC6450621, “Changes of drug pharmacokinetics mediated by downregulation of kidney organic cation transporters Mate1 and Oct2 in a rat model of hyperuricemia” (PLoS ONE, 2019)
